At least one structure is not confirmed: it was looked up by name or label, or the drawing left a doubt.
Assay: Drug release from loaded Silastic tubing in culture media (LC-MS/MS)
Type: physicochemical
Details: Silastic tubing depot approach
Method: Each sealed (10 cm) tube was immersed into a 10 cm culture tube containing 5 mL culture media (Dulbecco's Modified Eagle's medium (DMEM)+10% fetal bovine serum (FBS)+penicillin and streptomycin) approximating interstitial tissue surrounding the breast tissue. These tubes were set on a rocker in an incubator at 37° C. for 1, 2, 5, 10, 15, 21 and 30 days. After each time point media was collected and stored at −80° C. for further analysis for western blotting, viability/proliferation assay by MTS (3-(4,5-dimethylthiazol-2-yl)-5-(3-carboxymethoxyphenyl)-2-(4-sulfophenyl)-2H-tetrazolium) and quantitation by liquid chromatography-tandem mass spectrometry (LC-MS/MS). Additional iteration was to perform repeated washes on the same sealed tube and collect the culture medium at days 1, 2, 5, 10, 15, 21, and 30.
A validated LC-MS/MS method was used for quantitation of fulvestrant. Sample was prepared by liquid-liquid extraction procedures with n-hexane-isopropanol (90:10, v/v). Extracts were concentrated (using a nitrogen stream at room temperature) and […] with 2 volumes of mobile phase buffer, and injected into a Sciex ultra performance liquid chromatorgraphy (UPLC) coupled with a Sciex API 5000™ triple quadrupole mass spectrometer. Data was acquired and analyzed by Analyst® MS software.
Media was harvested semi-weekly (84 hrs).

## C[C@]12CC[C@@H]3c4ccc(O)cc4CC[C@H]3[C@@H]1CC[C@@H]2O [estradiol]
  drug transfer from Silastic tubing: amenable to drug transfer

Reference: US11918770B2, “Implants for localized drug delivery and methods of use thereof” (The Regents of the University of California, priority 2014, dated 2024)
